Data reported in publication doi:10.1101/2025.09.05.674552.
Where a chain is given by its changes, count along the chain named. No constants are given. Whether binding was seen depends on the method and setting. Binding seen in cells or lysates may run through a third protein. Some entries that bind do so weakly or less than the wild type. Sequences can lack the tags named with a protein.

The chains behind the UniProt entries cited, without tags or fusion partners. Where a name states a change or a piece, a line headed by the entry shows the natural chain unless it says otherwise.
UniProt Q5S007, whole entry: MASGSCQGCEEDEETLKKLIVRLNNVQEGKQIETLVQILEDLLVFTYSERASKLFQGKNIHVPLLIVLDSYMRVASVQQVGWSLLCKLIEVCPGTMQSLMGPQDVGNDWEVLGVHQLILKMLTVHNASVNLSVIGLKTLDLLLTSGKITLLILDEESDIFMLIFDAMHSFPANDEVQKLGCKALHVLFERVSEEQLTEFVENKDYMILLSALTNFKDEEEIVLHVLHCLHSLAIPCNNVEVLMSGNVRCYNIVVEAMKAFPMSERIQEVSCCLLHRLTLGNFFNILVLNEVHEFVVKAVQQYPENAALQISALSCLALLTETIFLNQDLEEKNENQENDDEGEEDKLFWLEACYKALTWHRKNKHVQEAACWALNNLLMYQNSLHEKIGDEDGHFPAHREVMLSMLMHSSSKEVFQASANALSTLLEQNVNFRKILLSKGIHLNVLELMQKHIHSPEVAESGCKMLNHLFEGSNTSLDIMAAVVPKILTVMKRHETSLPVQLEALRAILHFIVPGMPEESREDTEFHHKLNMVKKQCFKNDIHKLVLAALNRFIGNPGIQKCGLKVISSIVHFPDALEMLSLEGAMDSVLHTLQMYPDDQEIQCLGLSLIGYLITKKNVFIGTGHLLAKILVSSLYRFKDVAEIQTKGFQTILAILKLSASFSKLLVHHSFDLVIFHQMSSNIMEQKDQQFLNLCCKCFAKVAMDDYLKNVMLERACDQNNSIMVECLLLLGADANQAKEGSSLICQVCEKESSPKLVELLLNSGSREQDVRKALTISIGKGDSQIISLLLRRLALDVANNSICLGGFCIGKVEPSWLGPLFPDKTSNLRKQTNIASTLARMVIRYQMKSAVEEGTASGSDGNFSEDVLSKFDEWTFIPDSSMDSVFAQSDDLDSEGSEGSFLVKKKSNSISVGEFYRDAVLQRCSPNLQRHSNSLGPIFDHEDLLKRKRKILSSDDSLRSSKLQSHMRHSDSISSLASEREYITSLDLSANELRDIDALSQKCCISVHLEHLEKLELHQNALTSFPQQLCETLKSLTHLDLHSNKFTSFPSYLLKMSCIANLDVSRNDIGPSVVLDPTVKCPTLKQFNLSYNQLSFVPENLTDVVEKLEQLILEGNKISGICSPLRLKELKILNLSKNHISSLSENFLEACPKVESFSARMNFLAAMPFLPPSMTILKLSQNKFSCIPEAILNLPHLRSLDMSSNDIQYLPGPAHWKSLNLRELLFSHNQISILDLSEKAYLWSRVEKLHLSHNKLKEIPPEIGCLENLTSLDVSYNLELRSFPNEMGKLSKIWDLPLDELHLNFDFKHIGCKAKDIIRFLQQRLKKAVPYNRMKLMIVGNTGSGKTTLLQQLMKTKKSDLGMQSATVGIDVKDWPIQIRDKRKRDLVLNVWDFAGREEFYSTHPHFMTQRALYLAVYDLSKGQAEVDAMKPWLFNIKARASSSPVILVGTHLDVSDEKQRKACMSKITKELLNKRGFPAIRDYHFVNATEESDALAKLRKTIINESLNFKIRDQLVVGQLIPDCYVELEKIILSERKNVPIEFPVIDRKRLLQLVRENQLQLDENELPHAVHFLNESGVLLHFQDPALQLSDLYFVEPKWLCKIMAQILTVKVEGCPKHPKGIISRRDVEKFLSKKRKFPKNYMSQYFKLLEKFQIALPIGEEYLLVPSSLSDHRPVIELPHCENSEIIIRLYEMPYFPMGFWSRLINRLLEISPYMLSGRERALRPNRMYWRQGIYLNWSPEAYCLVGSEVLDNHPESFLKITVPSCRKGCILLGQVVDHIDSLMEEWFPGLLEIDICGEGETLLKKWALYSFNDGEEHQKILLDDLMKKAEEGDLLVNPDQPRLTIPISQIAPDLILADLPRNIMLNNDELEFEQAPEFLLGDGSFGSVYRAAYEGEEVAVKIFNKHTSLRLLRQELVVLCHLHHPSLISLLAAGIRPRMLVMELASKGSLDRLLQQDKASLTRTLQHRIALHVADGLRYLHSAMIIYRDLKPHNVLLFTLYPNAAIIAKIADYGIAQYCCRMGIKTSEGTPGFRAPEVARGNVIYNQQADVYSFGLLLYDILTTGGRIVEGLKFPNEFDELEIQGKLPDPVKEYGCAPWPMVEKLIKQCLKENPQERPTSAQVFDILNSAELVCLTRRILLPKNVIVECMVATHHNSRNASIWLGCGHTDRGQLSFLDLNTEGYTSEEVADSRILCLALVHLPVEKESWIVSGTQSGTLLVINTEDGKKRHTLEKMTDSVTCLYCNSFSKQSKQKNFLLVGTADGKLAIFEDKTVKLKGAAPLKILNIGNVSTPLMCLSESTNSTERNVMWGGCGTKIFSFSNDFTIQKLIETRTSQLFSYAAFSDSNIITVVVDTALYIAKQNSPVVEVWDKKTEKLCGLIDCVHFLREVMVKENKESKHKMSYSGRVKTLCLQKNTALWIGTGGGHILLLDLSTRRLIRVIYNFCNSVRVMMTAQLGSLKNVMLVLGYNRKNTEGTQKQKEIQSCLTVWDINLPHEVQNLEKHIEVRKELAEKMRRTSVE

Columns and labels:
Test in all cases: co-IP
[1] = target: T1, HA-RAB32 Ser71 wild-type (human) (UniProt Q13637)
T1 sequence: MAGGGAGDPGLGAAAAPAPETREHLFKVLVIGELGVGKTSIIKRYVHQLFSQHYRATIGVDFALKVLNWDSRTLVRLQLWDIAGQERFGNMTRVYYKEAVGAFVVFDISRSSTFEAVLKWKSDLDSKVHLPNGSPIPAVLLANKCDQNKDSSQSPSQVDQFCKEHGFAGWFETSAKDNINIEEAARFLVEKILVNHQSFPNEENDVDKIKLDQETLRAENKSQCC

HA-RAB32 Arg71 (human) = target: T2, HA-RAB32 Arg71 (human) (UniProt Q13637)
T2 sequence: T1 sequence with S71R

HA-RAB32 T39N (human) = target: T3, HA-RAB32 T39N (human) (UniProt Q13637)
T3 sequence: T1 sequence with T39N

HA-RAB32 Q85L (human) = target: T4, HA-RAB32 Q85L (human) (UniProt Q13637)
T4 sequence: T1 sequence with Q85L

Measured: binding

Leucine-rich repeat kinase 2 (LRRK2) (from UniProt Q5S007 1-2527)
binds: all assays above
